For this data set, the system named is AGE-BSA. The experiment in a line: AGE-BSA test (fluorescence quenching control). Also noted: species or system bovine. The conditions noted are these: compound 10 mM; AGE-BSA added to well after day 5.

Each structure is given as a SMILES string.

The values below come from patent US6417235B2, “Method and use of α-amino-β-mercapto-ethane derivatives as dicarbonyl scavengers for treatment of conditions resulting from protein, lipid, and DNA damage” (University of Kentucky Research Foundation, priority 2000, dated 2002).

The molecule `O=C1CC(=O)NC(=S)N1` [2-Thiobarbituric acid] registered an AGE-BSA test of 12 relative units.

`CC(C)(S)[C@@H](N)C(=O)O` [D-Penicillamine] showed an AGE-BSA test of 12 relative units.

For the molecule `CC(C)(S)C(N)C(=O)O` (racemic) [D,L-Penicillamine], the AGE-BSA test amounted to 15 relative units.

Molecule `N=C(N)NN` [Aminoguanidine] gave an AGE-BSA test of 10 relative units.
